Measurements published in patent US5998594A, “Self-assembling, chromogenic receptors for the recognition of medically important substrates and their method of use” (University of Pittsburgh of the Commonwealth System of …, priority 1994, dated 1999).
Values joined by “and” are separate entries in the source; they are usually repeats but may differ in a detail not shown here. Equal values may be shown once.

Assays:
Format in all cases: binding
[1] = NMR titration with glutaric acid
Description: Complexation of Receptor 1 with Dicarboxylic Acids. Receptor 1 is a bis(acylaminopyridine) receptor and as such was expected to form strong bidentate interactions with dicarboxylic acids in chloroform. This was indeed the case, as 1 was found by NMR to bind glutaric acid with an association constant of 3.6×10^4 M^-1. Large changes in proton chemical shifts of 1 indicate that the dicarboxylic acid is hydrogen bonded simultaneously to the two acylaminopyridines moieties. […] The contribution of the phenanthroline to binding is uncertain, but it appears to play only a minor role; no protons on the phenanthroline ring shifted more than 0.014 ppm during the course of the titration. […] The stoichiometry of the complexes was 2:1 as determined by the concentration of dicarboxylic acid at which saturation of the receptor was found and independently determined by a Job's plot. A Job's plot is used to measure stoichiometry based on continuous variations of constant concentrations. Binding was most conveniently followed by UV-vis spectroscopy (ΔA550) and was checked against NMR results for pimelic acid and glutaric acid. The binding data was analyzed by assuming that two independent and equal bidentate binding sites are interacting with the substrate. In this way a single association constant is obtained that represents the strength of binding of one of the receptor binding sites with one substrate. […] An exception was N-Cbz-glutamic acid, which is understandable because there are several diastereotopic complexes present (vide infra), each with a different Ka.

[2] = UV-vis titration (ΔA550) with glutaric acid in CHCl3; settings: glutaric acid 2:1 complex
Description: FIG. 3 discloses the change in the visible absorption spectrum of Cu(1)2^+ BF4^- upon addition of glutaric acid in CHCl3 [Cu(1)2^+ BF4^- ]=0.106 mM, [glutaric acid]=0-0.5 mM.
FIG. 4 discloses the change in the visible absorption spectrum of [Cu(L)2^+ BF4^- ] upon addition of glutaric acid in CHCl3. [Cu(L)2^+ BF4^- ]=0-0.125 mM [glutaric acid]=0-0.40 mM.
Complexation of Receptor 1 with Dicarboxylic Acids. Receptor 1 is a bis(acylaminopyridine) receptor and as such was expected to form strong bidentate interactions with dicarboxylic acids in chloroform. This was indeed the case, as 1 was found by NMR to bind glutaric acid with an association constant of 3.6×10^4 M^-1. […] The stoichiometry of the complexes was 2:1 as determined by the concentration of dicarboxylic acid at which saturation of the receptor was found and independently determined by a Job's plot. […] The binding data was analyzed by assuming that two independent and equal bidentate binding sites are interacting with the substrate. […]
The origin of the chromogenic effect is definitely a direct result of the bidentate binding of dicarboxylic acids to the receptors. Addition of large excesses of monocarboxylic acids (acetic or trifluoroacetic) to a CHCl3 solution of either Cu(I)-based receptor leads to only minor changes in the absorbance spectrum. […]

[3] = UV-vis titration (ΔA550) with N-Cbz-glutamic acid in CHCl3; settings: N-Cbz-glutamic acid 2:1 complex
Description: Complexation of Receptor 1 with Dicarboxylic Acids. Receptor 1 is a bis(acylaminopyridine) receptor and as such was expected to form strong bidentate interactions with dicarboxylic acids in chloroform. This was indeed the case, as 1 was found by NMR to bind glutaric acid with an association constant of 3.6×10^4 M^-1. Large changes in proton chemical shifts of 1 indicate that the dicarboxylic acid is hydrogen bonded simultaneously to the two acylaminopyridines moieties. […] The contribution of the phenanthroline to binding is uncertain, but it appears to play only a minor role; no protons on the phenanthroline ring shifted more than 0.014 ppm during the course of the titration. […] The stoichiometry of the complexes was 2:1 as determined by the concentration of dicarboxylic acid at which saturation of the receptor was found and independently determined by a Job's plot. A Job's plot is used to measure stoichiometry based on continuous variations of constant concentrations. […] The binding data was analyzed by assuming that two independent and equal bidentate binding sites are interacting with the substrate. […]
In the binding mode proposed in FIG. 5, the structure of the 2:1 complex of glutaric acid with Cu(1)2^+ BF4^- is chiral, similar to a double helix. […] This complicates the analysis of binding because six possibly different binding constants need to be evaluated. […]

[4] = UV-vis titration (ΔA550) with 1,3-phenylenediacetic acid in CHCl3; settings: 1,3-phenylenediacetic acid 2:1 complex
Description: Complexation of Receptor 1 with Dicarboxylic Acids. Receptor 1 is a bis(acylaminopyridine) receptor and as such was expected to form strong bidentate interactions with dicarboxylic acids in chloroform. This was indeed the case, as 1 was found by NMR to bind glutaric acid with an association constant of 3.6×10^4 M^-1. Large changes in proton chemical shifts of 1 indicate that the dicarboxylic acid is hydrogen bonded simultaneously to the two acylaminopyridines moieties. […] The contribution of the phenanthroline to binding is uncertain, but it appears to play only a minor role; no protons on the phenanthroline ring shifted more than 0.014 ppm during the course of the titration. […] The stoichiometry of the complexes was 2:1 as determined by the concentration of dicarboxylic acid at which saturation of the receptor was found and independently determined by a Job's plot. A Job's plot is used to measure stoichiometry based on continuous variations of constant concentrations. Binding was most conveniently followed by UV-vis spectroscopy (ΔA550) and was checked against NMR results for pimelic acid and glutaric acid. The binding data was analyzed by assuming that two independent and equal bidentate binding sites are interacting with the substrate. In this way a single association constant is obtained that represents the strength of binding of one of the receptor binding sites with one substrate. […]

| Compound | proton shift on binding, H3, H3' of the phenyl ring (Δδ) [1] | proton shift on binding, H3 of the aminopyridine ring (Δδ) [1] | proton shift on binding, amide protons (Δδ) [1] | proton shift on binding, phenanthroline ring protons [1] [ppm] | max (nm) 2:1 complex [2] | max (nm) 2:1 complex [3] | max (nm) 2:1 complex [4] |
| --- | --- | --- | --- | --- | --- | --- | --- |
| Cc1cccc(NC(=O)c2ccc(-c3ccc4ccc5ccc(-c6ccc(C(=O)Nc7cccc(C)n7)cc6)nc5c4n3)cc2)n1 [Receptor 1] | ~ 0.14 ppm | ~ 0.13 ppm | ~ 2.4 ppm | ≤ 0.014 |  |  |  |
| Cc1cccc(NC(=O)c2ccc(-c3ccc4ccc5ccc(-c6ccc(C(=O)Nc7cccc(C)n7)cc6)nc5c4n3)cc2)n1.Cc1cccc(NC(=O)c2ccc(-c3ccc4ccc5ccc(-c6ccc(C(=O)Nc7cccc(C)n7)cc6)nc5c4n3)cc2)n1.F[B-](F)(F)F.[Cu+] [Cu(1)2^+ BF4^-] |  |  |  |  | 420 nm and 518 nm | 420 nm and 526 nm | 422 nm and 534 nm |
